Experimental findings from publication PMC8617943 are described below.

The chains behind the UniProt entries cited, without tags or fusion partners.
UniProt P10415: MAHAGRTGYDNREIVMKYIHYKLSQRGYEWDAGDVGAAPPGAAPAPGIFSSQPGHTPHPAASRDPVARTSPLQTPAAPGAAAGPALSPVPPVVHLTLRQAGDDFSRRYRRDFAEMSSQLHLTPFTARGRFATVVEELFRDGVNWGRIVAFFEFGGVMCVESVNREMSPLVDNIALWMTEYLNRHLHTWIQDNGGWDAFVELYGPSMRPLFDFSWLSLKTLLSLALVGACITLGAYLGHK
UniProt Q676U5: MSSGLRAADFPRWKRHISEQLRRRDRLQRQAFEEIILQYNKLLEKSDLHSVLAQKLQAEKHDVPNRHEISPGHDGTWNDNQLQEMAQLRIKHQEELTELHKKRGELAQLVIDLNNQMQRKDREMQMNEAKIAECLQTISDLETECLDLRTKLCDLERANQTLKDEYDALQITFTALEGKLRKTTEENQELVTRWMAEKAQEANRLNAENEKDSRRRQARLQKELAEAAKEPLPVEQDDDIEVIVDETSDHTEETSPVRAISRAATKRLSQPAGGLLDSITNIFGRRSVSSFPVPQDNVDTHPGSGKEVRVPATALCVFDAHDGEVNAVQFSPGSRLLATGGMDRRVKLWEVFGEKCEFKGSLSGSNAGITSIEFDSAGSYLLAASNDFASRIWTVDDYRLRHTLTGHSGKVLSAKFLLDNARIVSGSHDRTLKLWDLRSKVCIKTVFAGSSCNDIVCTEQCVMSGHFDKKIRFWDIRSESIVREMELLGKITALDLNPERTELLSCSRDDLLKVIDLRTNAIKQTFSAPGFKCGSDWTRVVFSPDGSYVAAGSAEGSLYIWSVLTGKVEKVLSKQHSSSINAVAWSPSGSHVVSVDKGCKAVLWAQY
UniProt Q9NT62: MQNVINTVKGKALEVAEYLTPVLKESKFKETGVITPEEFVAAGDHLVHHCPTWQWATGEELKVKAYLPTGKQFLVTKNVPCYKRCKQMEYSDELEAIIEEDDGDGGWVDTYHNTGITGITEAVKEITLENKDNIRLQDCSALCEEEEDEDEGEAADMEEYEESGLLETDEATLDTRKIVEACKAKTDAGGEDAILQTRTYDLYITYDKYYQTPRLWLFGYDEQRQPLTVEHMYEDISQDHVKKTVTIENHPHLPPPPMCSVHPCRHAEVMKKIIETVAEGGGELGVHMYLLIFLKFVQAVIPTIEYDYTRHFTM
UniProt P09429: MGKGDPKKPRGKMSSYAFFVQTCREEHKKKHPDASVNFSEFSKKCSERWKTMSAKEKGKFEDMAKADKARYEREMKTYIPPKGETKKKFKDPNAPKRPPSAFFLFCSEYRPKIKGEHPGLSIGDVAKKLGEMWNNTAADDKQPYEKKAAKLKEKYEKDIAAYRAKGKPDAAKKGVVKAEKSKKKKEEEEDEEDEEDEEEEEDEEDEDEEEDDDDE
UniProt O94817: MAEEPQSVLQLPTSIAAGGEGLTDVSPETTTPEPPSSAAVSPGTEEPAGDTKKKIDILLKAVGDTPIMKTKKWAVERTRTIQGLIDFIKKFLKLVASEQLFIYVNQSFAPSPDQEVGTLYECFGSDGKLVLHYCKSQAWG

These are yes or no findings as the source states them, for the method shown. In cells and extracts the contact can be indirect. Some results given as binding are weak or reduced against the parent protein; the word gives no strength.

The target of assay [1] is Bcl-2 (human (endogenous in Ca Ski)) (UniProt P10415). In words: co-IP; endogenous proteins in Ca Ski whole cell lysates precleared with Protein A/G PLUS-Agarose; IP with anti-Bcl-2 or anti-Beclin 1 monoclonal antibody or control rabbit IgG, 2 h at room temperature, captured on protein A/G agarose, western blot; cells untreated or treated with RCE-4 8 μmol/L for 6, 12 and 24 h, with or without ATG 4B siRNA. On the technique in general: In western blotting, separated proteins are transferred to a membrane and probed.

Assay [2] deals with Beclin 1 (human (endogenous in Ca Ski)) (UniProt Q14457). The description is as above.

In the case of Beclin 1 (from UniProt Q14457 1-450), the binding result in assay [1] is recorded as “binds”.

Take ATG 16L1 (from UniProt Q676U5 1-607): the binding result in assay [1] and in assay [2] was “binds” in each case.

As to ATG 14 (from UniProt Q6ZNE5 1-492), in assay [1], the binding entry was “binds”.

On to ATG 3 (from UniProt Q9NT62 1-314), for which the binding result in assay [2] is on record as “binds”.

Turning to HMGB-1 (from UniProt P09429 1-215), in assay [2], the binding result is “binds”.

Consider Bcl-2 (from UniProt P10415 1-239), for which, in assay [2], the binding entry was “binds”.

On to ATG 12 (from UniProt O94817 1-140), for which the binding entry in assay [1] and in assay [2] was “binds” each time.
